Measurements published in the supplement of paper PMC12823440, “Inhibitors supercharge kinase turnover through native proteolytic circuits” (Nature, 2025).
Structures can show the parent of a compound that is named as a salt. Some of the results follow. The calls rarely recur for the same compound in another form.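 Kinases were expressed as nanoluciferase fusions in K562 cells and luminescence was read every 4 h between 2 and 18 h as percent of control, DMSO set to 100% and a positive control to 0%. A time point counts as decreased when the signal drops significantly (2 sigma). The hit call is the authors' own, does not follow from the count of time points alone, and its rule is not shown.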

Sequences of proteins named here, by UniProt entry; tags and fusion partners are left off. A change or cut given only in a name is not applied to a line headed by its entry.
UniProt P29317, whole entry: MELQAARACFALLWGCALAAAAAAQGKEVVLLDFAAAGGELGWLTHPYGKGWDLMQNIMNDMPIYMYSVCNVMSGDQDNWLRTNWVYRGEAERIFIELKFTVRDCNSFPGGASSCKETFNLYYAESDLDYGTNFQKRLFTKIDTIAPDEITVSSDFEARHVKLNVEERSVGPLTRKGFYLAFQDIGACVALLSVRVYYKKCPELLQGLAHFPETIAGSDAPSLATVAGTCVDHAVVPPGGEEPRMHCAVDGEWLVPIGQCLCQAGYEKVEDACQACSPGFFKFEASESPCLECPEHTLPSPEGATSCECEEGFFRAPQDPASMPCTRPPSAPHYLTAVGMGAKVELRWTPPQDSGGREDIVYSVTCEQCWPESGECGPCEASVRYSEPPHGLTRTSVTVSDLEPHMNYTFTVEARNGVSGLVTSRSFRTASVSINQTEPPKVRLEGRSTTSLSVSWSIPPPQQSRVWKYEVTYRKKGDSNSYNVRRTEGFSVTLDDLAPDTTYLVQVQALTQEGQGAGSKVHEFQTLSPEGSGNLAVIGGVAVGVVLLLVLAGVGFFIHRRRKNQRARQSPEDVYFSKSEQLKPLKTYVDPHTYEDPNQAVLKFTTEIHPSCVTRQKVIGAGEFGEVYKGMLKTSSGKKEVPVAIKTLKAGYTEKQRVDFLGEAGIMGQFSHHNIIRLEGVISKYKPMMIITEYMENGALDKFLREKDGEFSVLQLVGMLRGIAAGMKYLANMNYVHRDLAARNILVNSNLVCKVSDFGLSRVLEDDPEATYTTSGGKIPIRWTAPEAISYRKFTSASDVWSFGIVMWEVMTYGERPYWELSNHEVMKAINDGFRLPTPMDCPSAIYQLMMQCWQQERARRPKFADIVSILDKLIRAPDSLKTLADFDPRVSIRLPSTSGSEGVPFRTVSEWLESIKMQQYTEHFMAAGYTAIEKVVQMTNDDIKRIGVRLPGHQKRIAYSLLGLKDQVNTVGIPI
UniProt Q15303, whole entry R711C: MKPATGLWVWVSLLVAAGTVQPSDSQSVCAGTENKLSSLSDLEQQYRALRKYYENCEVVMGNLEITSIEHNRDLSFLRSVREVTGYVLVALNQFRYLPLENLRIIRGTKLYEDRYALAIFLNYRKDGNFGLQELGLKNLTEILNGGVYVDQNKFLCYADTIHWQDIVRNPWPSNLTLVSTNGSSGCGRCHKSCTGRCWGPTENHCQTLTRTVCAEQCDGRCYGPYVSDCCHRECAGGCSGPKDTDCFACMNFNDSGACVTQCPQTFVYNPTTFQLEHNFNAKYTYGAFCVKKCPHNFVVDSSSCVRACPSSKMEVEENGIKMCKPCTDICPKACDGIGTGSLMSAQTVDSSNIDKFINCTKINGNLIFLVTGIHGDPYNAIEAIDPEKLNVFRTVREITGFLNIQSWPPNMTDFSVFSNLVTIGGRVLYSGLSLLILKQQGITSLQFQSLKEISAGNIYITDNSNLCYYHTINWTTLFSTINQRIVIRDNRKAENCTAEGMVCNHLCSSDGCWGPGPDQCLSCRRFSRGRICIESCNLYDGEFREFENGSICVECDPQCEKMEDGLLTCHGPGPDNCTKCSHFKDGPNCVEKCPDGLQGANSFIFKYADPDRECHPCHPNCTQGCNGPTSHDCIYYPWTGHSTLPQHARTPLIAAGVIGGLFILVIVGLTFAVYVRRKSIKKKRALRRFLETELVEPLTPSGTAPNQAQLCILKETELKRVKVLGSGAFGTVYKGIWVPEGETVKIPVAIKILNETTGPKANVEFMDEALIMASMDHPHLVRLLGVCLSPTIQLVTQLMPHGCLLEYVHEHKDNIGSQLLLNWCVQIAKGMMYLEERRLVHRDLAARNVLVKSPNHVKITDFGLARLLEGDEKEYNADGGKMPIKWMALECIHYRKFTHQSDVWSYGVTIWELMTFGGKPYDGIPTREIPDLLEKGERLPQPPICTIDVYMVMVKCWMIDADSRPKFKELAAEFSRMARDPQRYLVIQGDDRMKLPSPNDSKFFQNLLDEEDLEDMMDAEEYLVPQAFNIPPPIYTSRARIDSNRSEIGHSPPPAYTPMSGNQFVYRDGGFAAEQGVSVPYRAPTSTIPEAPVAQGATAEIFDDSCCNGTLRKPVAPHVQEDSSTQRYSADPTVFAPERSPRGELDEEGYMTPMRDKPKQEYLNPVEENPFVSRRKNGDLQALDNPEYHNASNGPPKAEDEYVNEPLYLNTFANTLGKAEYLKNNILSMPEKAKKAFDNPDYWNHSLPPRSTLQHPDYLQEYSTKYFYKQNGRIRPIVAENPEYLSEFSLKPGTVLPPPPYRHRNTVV
UniProt O75460: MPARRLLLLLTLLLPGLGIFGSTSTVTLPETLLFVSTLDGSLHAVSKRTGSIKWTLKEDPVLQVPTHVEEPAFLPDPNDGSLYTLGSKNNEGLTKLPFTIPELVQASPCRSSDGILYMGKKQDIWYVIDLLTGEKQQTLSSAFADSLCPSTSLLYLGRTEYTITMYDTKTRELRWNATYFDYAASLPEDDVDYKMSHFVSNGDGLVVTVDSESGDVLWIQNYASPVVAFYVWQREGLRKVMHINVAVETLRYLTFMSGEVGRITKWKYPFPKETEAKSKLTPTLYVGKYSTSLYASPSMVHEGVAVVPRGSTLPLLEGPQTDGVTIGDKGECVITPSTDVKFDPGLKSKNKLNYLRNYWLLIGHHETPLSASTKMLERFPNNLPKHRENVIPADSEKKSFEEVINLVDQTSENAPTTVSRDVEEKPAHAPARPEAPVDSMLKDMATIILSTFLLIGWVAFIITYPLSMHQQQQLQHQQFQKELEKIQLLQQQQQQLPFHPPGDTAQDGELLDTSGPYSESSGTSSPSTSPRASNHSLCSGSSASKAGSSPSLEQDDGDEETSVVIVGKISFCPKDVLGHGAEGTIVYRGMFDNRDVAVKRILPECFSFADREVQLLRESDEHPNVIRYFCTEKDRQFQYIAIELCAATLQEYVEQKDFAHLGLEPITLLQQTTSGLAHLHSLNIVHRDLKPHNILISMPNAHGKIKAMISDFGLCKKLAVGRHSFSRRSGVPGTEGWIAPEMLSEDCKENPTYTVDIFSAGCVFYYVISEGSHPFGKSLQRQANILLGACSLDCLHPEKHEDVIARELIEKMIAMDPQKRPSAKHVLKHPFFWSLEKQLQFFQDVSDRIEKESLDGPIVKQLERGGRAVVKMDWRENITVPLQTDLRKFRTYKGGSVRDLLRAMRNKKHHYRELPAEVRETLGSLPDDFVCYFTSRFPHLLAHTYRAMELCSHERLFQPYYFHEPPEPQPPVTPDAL
UniProt P11362, whole entry, looked up: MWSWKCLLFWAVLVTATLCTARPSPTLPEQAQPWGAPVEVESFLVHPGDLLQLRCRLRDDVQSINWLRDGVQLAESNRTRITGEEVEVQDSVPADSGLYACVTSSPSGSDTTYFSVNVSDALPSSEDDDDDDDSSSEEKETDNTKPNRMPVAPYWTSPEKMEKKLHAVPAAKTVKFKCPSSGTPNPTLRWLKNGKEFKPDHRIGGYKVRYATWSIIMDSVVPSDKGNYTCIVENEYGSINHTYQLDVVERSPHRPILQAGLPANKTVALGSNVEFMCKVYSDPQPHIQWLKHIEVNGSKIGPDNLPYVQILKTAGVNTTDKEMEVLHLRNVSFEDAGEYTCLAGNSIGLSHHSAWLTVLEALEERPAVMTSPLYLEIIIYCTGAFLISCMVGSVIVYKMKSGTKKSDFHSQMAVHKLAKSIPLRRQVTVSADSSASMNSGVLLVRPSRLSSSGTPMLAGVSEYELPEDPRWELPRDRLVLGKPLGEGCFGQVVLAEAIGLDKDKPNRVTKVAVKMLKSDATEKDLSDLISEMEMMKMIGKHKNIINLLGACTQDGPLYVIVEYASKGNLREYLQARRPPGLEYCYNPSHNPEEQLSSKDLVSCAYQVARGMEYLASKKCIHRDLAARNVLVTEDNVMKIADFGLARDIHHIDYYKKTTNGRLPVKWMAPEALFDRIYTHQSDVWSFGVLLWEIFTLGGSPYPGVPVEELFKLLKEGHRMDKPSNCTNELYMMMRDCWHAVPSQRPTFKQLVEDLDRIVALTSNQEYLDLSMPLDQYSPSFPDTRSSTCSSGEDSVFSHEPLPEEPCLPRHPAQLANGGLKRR
UniProt P21802, whole entry, looked up: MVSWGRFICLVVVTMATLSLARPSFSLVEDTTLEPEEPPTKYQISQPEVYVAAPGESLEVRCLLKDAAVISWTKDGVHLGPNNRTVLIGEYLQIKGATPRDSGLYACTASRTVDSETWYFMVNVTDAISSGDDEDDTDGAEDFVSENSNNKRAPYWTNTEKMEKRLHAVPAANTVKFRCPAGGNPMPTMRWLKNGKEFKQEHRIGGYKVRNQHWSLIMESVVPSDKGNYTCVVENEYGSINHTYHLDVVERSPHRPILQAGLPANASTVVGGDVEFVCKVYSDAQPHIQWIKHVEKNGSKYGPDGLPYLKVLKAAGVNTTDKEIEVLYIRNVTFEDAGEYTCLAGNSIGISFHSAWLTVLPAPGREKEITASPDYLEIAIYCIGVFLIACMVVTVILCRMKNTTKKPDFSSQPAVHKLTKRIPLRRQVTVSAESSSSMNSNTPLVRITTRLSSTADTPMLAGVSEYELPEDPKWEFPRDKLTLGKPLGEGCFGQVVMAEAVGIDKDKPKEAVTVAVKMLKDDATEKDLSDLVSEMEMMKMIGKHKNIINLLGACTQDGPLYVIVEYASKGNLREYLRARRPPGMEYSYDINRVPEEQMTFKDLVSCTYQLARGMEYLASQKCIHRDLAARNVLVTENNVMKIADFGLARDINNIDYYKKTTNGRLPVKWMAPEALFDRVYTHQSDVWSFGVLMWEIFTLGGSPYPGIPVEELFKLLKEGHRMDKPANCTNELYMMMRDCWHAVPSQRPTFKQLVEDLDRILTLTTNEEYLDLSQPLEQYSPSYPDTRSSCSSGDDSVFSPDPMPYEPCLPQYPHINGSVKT
UniProt P22607, whole entry, looked up: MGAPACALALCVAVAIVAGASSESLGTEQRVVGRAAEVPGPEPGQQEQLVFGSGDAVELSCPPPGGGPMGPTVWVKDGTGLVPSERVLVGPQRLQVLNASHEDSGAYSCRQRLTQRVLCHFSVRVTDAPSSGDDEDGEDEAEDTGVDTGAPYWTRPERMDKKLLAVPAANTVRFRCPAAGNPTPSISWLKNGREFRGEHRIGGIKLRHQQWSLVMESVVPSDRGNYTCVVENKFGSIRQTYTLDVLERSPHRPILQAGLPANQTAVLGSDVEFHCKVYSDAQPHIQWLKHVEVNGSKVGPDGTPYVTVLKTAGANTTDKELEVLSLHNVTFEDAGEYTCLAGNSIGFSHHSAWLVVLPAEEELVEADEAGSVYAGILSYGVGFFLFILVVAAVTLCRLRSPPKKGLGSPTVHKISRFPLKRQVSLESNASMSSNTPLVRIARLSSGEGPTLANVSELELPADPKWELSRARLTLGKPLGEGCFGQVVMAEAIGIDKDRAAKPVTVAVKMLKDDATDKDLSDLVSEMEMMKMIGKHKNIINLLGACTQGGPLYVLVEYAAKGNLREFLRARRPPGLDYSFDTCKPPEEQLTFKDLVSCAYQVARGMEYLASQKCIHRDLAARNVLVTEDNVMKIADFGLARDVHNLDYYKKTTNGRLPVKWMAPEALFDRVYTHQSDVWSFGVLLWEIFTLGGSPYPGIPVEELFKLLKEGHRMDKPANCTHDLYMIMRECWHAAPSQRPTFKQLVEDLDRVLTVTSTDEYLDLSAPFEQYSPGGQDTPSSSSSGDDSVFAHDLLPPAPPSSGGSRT

Assays:
Assay in all cases: number of time points (of 5) at which kinase-Nluc abundance scored as decreased, DMSO-normalised (count); higher = more persistent destabilization
Conditions in all cases: K562; 2-18 h
EGFR_L861Q = EGFR_L861Q (UniProt P00533)
EGFR_T790M = EGFR_T790M (UniProt P00533)
EPHA2 = EPHA2 (UniProt P29317)
ERBB3 = ERBB3 (UniProt P21860)
[1] = target: ERBB4_R711C (clone: ERBB4_mut) (UniProt Q15303)
ERN1 = ERN1 (UniProt O75460)
FGFR1 = FGFR1 (UniProt P11362)
FGFR2 = FGFR2 (UniProt P21802)
FGFR3 = FGFR3 (UniProt P22607)
FGR = FGR (UniProt P09769)

Compound	number of time points (EGFR_L861Q)	number of time points (EGFR_T790M)	number of time points (EPHA2)	number of time points (ERBB3)	number of time points [1]	number of time points (ERN1)	number of time points (FGFR1)	number of time points (FGFR2)	number of time points (FGFR3)	number of time points (FGR)
Nc1nc2ccc(Cl)cc2c2nc(-c3ccco3)nn12 (10 µM)	0	0	0	0	0	0	0	0	0	0
Cc1ccc(C(=O)Nc2ccc(Oc3cc4cnn(C)c4cc3-c3cn[nH]c3)c(F)c2)c(=O)n1-c1ccc(F)cc1 [Merestinib dihydrochloride] (2.5 µM)	0	0	0	0	0	0	0	0	0	0
Cc1[nH]c(/C=C2\C(=O)Nc3ccccc32)c(C)c1CCC(=O)O [Orantinib] (10 µM)			0	0	0	0	0	0	0	0
Cc1[nH]c(/C=C2\C(=O)Nc3ccccc32)c(C)c1CCC(=O)O [(Z)-Orantinib] (10 µM)			0	0	0	0	0	0	0	0
COc1cc2c(N3CCN(C(=O)Nc4ccc(OC(C)C)cc4)CC3)ncnc2cc1OCCCN1CCCCC1 [Tandutinib] (10 µM)			0	0	0	0	0	0	0	0
COc1cc2c(N3CCN(C(=O)Nc4ccc(OC(C)C)cc4)CC3)ncnc2cc1OCCCN1CCCCC1 [Tandutinib (hydrochloride)] (10 µM)			0	0	0	0	0	0	0	0
C=CC(=O)Nc1cccc(Nc2nc(Nc3ccc(N4CCN(C(C)=O)CC4)cc3OC)ncc2C(F)(F)F)c1 [Rociletinib] (10 µM)	0		0	1	4	0	0	0	0	0
N#Cc1c(C2CCNCC2)cc(-c2c(O)cccc2OCC2CC2)nc1N [ACHP (Hydrochloride)] (10 µM)	0	0	0	0	0	0	0	0	0	0
FC(F)c1nc2ccccc2n1-c1nc(N2CCOCC2)nc(N2CCOCC2)n1 (2 µM)	0	0	0	0	1	0	0	0	0	0
Cn1ncc(Cl)c1-c1cc(C(=O)N[C@H](CN)Cc2ccc(F)c(F)c2)oc1Cl [Uprosertib] (10 µM)	0	0	0	0	0	0	0	0	0	0
COc1cc(Nc2ncc(F)c(Nc3ccc4c(n3)NC(=O)C(C)(C)O4)n2)cc(OC)c1OC (10 µM)			0	0	0	0	0		0	0
CCS(=O)(=O)c1ncc(Cl)c(C(=O)N(Cc2ccc(Cl)cc2)Cc2ccco2)n1 (2.5 µM)	0	0	0	0	0	2	0	2	0	0
NCCNS(=O)(=O)c1cccc2c(Cl)cccc12 [A-3 (hydrochloride)] (10 µM)	0	0	0	0	0	0	0	0	0	0
O=Nc1c(-c2c(O)[nH]c3ccc(F)cc23)[nH]c2ccccc12 [5'-Fluoroindirubinoxime] (10 µM)	0	0	0	0	0	0	5	5	0	0
C[C@@H]1COCCN1c1cc(C2([S@@](C)(=N)=O)CC2)nc(-c2ccnc3[nH]ccc23)n1 [(S)-Ceralasertib] (10 µM)	0	0	0	0	0	0	0	0	0	0
O=C(NOCC(O)CO)c1cc(Br)c(F)c(F)c1Nc1ccc(I)cc1F (centres undefined) (2.5 µM)	0	0	0	0	0	0	0	0	0	0
CN(C)CCCOc1ccc(-c2ccc3ncc4c(c3c2)n(C2CCOCC2)c(=O)n4C)cn1 (2 µM)	0	0	0	0	0	0	0	0	0	0

Limited to number of time points (FGFR1) (2 entries from above):

| Compound | number of time points (FGFR1) |
| --- | --- |
| Cc1ccc(C(=O)Nc2ccc(Oc3cc4cnn(C)c4cc3-c3cn[nH]c3)c(F)c2)c(=O)n1-c1ccc(F)cc1 [Merestinib dihydrochloride] (2.5 µM) | 0 |
| Cn1ncc(Cl)c1-c1cc(C(=O)N[C@H](CN)Cc2ccc(F)c(F)c2)oc1Cl [Uprosertib] (10 µM) | 0 |

Carrying on.

Compound	number of time points (EGFR_L861Q)	number of time points (EGFR_T790M)	number of time points (EPHA2)	number of time points (ERBB3)	number of time points [1]	number of time points (ERN1)	number of time points (FGFR1)	number of time points (FGFR2)	number of time points (FGFR3)	number of time points (FGR)
CC(=O)NC1CC(n2cnc(NC(=O)Cc3ccc4ccccc4c3)c2)C1 (centres undefined) (10 µM)	0	0	0	0	0	0	0	0	0	0
Cc1ccccc1-c1c2nccc(-c3ccc(F)cc3F)c2cc[n+]1[O-] (10 µM)	0	0	0	0	0	0	0	0	0	0
NS(=O)(=O)c1ccc(-n2nc(C(F)(F)F)cc2-c2ccc(Cl)cc2)cc1 (10 µM)	0	0	0	0	0	0	0	0	0	0
FC(F)(F)c1ccc(CNc2ccc(Cc3c[nH]c4ncccc34)cn2)cc1 (10 µM)	0	0	0	0	0	0	0	0	0	0
CNC(=O)c1ccc(C)c(-n2c(C)cc(OCc3ccc(F)cc3F)c(Br)c2=O)c1 (10 µM)	0	0	0	0	0	0	0	0	0	0
C[C@@H]1CCN(C(=O)CC#N)C[C@@H]1N(C)c1ncnc2[nH]ccc12 [Tofacitinib] (10 µM)			0	0	0	0	0	0	0	0
O=C(N/N=C/c1coc2ccccc2c1=O)c1cccnc1 (10 µM)	0	0	0	0	0	0	0	0	0	0
CC1(C)C(O[C@@H]2OC[C@@H](O)[C@H](O)[C@H]2O)CC[C@]23CC24CC[C@]2(C)[C@@H]([C@@]5(C)CC[C@@H](C(C)(C)O)O5)[C@H](O)C[C@@]2(C)C4C[C@@H](O[C@@H]2O[C@H](CO)[C@@H](O)[C@H](O)[C@H]2O)C13 (some centres undefined) [Astragaloside IV] (10 µM)	0	0	0	0	0	0	0	0	0	0
C[C@@H]1CCN(C(=O)CC#N)C[C@@H]1N(C)c1ncnc2[nH]ccc12 [Tofacitinib (citrate)] (10 µM)			0	0	0	0	0	0	0	0
COc1cc2ncnc(Nc3ccc(Cl)cc3F)c2cc1OC (10 µM)	0	0	0	0	0	0	0	0	0	0
Cn1cc(-c2ccc3c(c2)CCN3C(=O)Cc2cccc(C(F)(F)F)c2)c2c(N)ncnc21 (2.5 µM)	0	0	0	0	0	0	0	0	0	0
Cc1ccc2cc(-c3c(C)ccc(C(=O)c4c(-c5ccccc5)n(C)n(-c5ccccc5)c4=O)c3N)ccc2n1 (2.5 µM)	0	0	0	0	0	0	0	0	0	0
COc1cc(Nc2ncc(F)c(Nc3ccc4c(n3)NC(=O)C(C)(C)O4)n2)cc(OC)c1OC [R406 (free base)] (10 µM)			0	0	0	0	0		0	0
Cc1c(NC(=O)c2cccn(-c3ccc(F)cc3)c2=O)ccc(Oc2ccnc(NC(=O)C3CC3)c2)c1C (2 µM)	0	0	0	4	1	0	2	0	0	0
CC#CC(=O)Nc1ccc2ncnc(Nc3cccc(Br)c3)c2c1 (10 µM)			0	0	0	0	0	1	0	0
COc1cc2nccc(Oc3ccc(NC(=O)NC4CC4)c(Cl)c3)c2cc1C(N)=O [Lenvatinib (mesylate)] (10 µM)	3	1	0	4	4	0	0	0	0	0
